{"source": "patent US20180194836A1", "about": "“PREVENTION OF METASTASIS AND RECURRENCE AFTER PRIMARY CANCER TREATMENT” (ENCYT TECHNOLOGIES, INC., priority 2014, published 2018)", "assay": "Plasma cytokine levels before and after surgical removal of tumours (EMD Millipore kits, Luminex 200)", "type": "in vivo, human", "data": [{"substance": "FGF2", "values": [{"measurement": "FGF2 plasma level, Average, After", "setting": "average of patients, after surgery", "value": 139.7117}]}, {"substance": "HIGF-1", "values": [{"measurement": "HIGF-1 plasma level, Average, D14", "setting": "average of patients, Day 14 after surgery", "value": 82540.14}]}, {"substance": "HIGF-2", "values": [{"measurement": "change of HIGF-2 levels vs. before surgery", "setting": "after surgery and at Day 1, Day 2, Day 3 and Day 7 after surgery", "value": "Significant down-regulation of HIGF-2 levels after surgery and at Day 1, Day 2,"}]}, {"substance": "IL1B", "values": [{"measurement": "change of IL1B levels vs. before surgery", "setting": "after surgery and at Day 1 and Day 2 after surgery", "value": "Significant down-regulation of IL1B levels after surgery and at Day 1 and Day 2"}, {"measurement": "IL1B plasma level, Average, D3", "setting": "average of patients, Day 3 after surgery", "value": 4.957}, {"measurement": "IL1B plasma level, Average, D28", "setting": "average of patients, Day 28 after surgery", "value": 5.995}, {"measurement": "IL1B plasma level, Average, Before", "setting": "average of patients, before surgery", "value": 4.154}]}, {"substance": "Il-8: cytokine IL-8 added to cultured CTCs", "values": [{"measurement": "change of IL-8 levels vs. before surgery", "setting": "after surgery", "value": "IL-8 levels are unchanged after surgery."}]}]}
